Data taken from patent publication US9161533B2, “Plant pathogen resistance” (priority 2007, dated 2015).

Assay: GC-MS level of azelaic acid in petiole exudates
Design: species or system Arabidopsis

O=C(O)CCCCCCCC(=O)O [azelaic acid]
azelaic acid level in mock-induced exudates (Col-Mex, 10 mM MgSO4, 72 hrs): 5.1 µM | higher levels of azelaic acid in active vs inactive exudates (average, p=0.042): 6.2 fold
